Like-named read-outs stand apart in the source and are kept apart here. No constants are given. Whether binding was seen depends on the method and setting. For some assays here: Binding seen in cells or lysates may run through a third protein. Some results given as binding are weak or reduced against the parent protein; the word gives no strength.
Assays:
[1] = molecular target: BiP NBD (human BiP nucleotide binding domain, aa 26-405, from 6His-Smt3-BiP NBD) (human) (UniProt P11021); test: MST
[2] = molecular target: 6His-3C-BiP FL (human full-length BiP, aa 25-654) (human) (UniProt P11021); test: MST
[3] = molecular target: BiP NBD (human BiP nucleotide binding domain, aa 26-405, from 6His-Smt3-BiP NBD) (human) (UniProt P11021); test: SEC
[4] = molecular target: 6His-3C-BiP NBD (human BiP nucleotide binding domain, aa 25-407) (human) (UniProt P11021); test: pull-down
[5] = molecular target: 6His-3C-BiP NBD (human BiP nucleotide binding domain, aa 25-407) (human) (UniProt P11021); test: pull-down; remark: listed apart in the source
[6] = molecular target: 6His-3C-BiP SBD (human BiP substrate binding domain, aa 418-654) (human) (UniProt P11021); test: pull-down
[7] = molecular target: 6His-3C-BiP FL (human full-length BiP, aa 25-654) (human) (UniProt P11021); test: pull-down
[8] = molecular target: BiP (Grp78) split-Venus BiFC fusion (pEZY BiFC Grp78-NV(CV)) (human) (UniProt P11021); test: split reporter

Sequences of proteins named here, by UniProt entry; tags and fusion partners are left off. Residues count along the entry.
UniProt P11021, 25-407: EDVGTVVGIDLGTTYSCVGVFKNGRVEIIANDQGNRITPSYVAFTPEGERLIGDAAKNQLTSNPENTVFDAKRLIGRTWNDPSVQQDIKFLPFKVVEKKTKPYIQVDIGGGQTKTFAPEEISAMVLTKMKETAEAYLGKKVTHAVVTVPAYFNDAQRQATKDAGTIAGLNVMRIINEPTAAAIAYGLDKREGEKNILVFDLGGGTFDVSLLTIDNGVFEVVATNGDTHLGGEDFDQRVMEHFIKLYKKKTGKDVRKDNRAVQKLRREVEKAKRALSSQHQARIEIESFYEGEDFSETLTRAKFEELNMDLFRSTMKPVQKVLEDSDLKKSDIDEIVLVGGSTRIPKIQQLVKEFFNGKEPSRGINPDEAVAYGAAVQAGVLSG
UniProt P11021, 25-654: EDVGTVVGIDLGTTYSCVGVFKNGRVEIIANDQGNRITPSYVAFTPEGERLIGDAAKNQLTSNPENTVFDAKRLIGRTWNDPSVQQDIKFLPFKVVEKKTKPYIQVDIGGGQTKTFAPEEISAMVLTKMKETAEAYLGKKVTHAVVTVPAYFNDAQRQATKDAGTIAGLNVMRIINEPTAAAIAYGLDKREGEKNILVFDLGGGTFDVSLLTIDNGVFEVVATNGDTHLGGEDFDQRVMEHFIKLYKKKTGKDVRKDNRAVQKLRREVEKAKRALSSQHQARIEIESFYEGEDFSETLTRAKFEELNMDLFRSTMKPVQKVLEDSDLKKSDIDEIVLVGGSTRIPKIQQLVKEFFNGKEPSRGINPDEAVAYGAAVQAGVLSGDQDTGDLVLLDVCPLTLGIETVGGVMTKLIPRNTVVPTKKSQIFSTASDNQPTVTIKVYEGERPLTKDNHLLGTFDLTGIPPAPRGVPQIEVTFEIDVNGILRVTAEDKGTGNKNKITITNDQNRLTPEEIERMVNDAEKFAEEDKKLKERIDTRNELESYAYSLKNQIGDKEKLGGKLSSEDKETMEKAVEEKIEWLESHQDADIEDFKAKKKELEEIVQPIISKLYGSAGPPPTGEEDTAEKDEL
UniProt P11021, 26-405: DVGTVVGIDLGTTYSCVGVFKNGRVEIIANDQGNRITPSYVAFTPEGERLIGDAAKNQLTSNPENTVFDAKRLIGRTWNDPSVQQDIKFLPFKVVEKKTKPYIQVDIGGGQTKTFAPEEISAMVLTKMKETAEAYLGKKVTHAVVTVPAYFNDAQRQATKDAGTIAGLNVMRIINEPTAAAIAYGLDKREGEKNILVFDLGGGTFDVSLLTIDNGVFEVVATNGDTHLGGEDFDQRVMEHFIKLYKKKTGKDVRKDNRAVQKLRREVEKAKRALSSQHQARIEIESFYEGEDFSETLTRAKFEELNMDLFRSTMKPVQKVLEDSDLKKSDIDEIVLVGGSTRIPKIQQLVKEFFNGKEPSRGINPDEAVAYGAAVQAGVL
UniProt P11021, 19-654: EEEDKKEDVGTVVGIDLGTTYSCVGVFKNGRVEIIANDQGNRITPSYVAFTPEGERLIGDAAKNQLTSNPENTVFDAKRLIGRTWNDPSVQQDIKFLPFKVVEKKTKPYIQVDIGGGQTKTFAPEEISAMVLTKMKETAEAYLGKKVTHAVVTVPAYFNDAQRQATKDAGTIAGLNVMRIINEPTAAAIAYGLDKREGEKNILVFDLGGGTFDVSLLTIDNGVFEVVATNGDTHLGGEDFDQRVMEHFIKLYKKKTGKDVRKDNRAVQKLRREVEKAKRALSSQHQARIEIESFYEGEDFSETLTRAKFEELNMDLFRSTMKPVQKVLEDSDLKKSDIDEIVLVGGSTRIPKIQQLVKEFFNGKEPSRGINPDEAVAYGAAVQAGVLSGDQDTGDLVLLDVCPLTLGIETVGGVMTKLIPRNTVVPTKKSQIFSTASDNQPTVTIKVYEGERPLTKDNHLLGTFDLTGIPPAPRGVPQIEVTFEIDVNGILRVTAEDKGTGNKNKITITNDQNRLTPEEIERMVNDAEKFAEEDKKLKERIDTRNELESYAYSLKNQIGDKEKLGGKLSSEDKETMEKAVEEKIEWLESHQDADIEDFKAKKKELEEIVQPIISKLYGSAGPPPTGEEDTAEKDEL
UniProt P11021, 418-654: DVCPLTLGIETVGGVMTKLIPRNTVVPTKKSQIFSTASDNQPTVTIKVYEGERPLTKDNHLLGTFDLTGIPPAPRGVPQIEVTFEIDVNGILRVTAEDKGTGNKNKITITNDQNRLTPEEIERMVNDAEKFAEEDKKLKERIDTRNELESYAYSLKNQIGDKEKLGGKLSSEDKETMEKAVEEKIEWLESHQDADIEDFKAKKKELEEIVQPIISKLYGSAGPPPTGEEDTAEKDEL
UniProt Q49AH0, 25-187: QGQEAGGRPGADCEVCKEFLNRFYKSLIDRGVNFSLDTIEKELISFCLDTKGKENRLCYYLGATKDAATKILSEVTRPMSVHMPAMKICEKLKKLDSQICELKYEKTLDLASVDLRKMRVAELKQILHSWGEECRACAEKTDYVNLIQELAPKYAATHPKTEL

| Substance | binding [1] | binding [2] | binding [3] | binding [4] | binding [5] | binding [6] | binding [7] | binding [8] |
| --- | --- | --- | --- | --- | --- | --- | --- | --- |
| CDNF (wild type) purified from CHO cells (from UniProt Q49AH0 25-187) | binds | binds | binds | binds | binds | no binding (tested: 100 µM CDNF) | binds |  |
| CDNF (wild type) split-Venus BiFC fusion (pEZY BiFC pre-CDNF-NV(CV)) (from UniProt Q49AH0 25-187) |  |  |  |  |  |  |  | binds |

Reference: paper doi:10.1101/2025.07.08.663636
